Percent effect of library compounds

Protein sequences, listed by entry. Tags and fused reporters are not part of them. Residues count along the entry.
UniProt Q4DA54, 1-478: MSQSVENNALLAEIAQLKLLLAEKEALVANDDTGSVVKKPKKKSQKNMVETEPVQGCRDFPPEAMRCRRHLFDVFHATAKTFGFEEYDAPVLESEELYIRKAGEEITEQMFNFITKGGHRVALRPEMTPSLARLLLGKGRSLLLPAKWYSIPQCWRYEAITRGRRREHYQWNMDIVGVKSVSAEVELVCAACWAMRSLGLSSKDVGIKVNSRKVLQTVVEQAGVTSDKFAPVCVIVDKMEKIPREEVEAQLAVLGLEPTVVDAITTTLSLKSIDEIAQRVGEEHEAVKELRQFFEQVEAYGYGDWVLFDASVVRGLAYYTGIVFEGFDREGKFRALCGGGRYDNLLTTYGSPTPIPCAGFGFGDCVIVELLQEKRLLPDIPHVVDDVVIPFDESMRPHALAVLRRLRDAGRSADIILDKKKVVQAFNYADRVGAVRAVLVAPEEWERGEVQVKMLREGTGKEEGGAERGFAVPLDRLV

Toxoplasma: 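Assay of Toxoplasma gondii numbers, read through their beta-galactosidase reporter with a colour substrate. Tested at 10 µM. The record gives no direction; the compounds picked for IC50 retests had high values, so higher reads as fewer parasites. Of about 67,000 compounds tested this way, about 260 (0.38%) reached 50% or more in at least one test.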
TcHisRS: 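Histidine-tRNA ligase, Trypanosoma cruzi CL Brener (UniProt Q4DA54). Enzyme assay of histidyl-tRNA synthetase; the read-out is not stated. Compounds at 30 µM. The record gives no direction; compounds that gave an IC50 in retests scored well above the rest, so higher reads as stronger inhibition. About 69,000 compounds were tested under these conditions; 0.045% (about 31) showed 50% or more at least once.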

Values are the deposited “Percent Effect”, in %.
The controls that fix the scale are not given in the record; negative values are as filed.
The compounds are a random part of those screened.
A dash means the value is not listed here; it may have been measured.

| compound | Toxoplasma | TcHisRS |
|---|---|---|
| `CC(C)(C)CN1CCC(c2nnc(Cn3ccnc3)n2C2CC2)CC1` | 14.29 | 4.545 |
| `Cc1cnc(-c2nc(NC3CCCC3)ncc2-c2onc(C)c2C)cn1` | 11.87 | 8.365 |
| `[H][C@@]12CN(c3ccc(C)nn3)C[C@]1([H])OCCN2Cc1c(C)noc1C` | -4.095 | - |
| `COc1ccc(C)cc1CC(=O)NC(CC(=O)O)c1ccc(F)cc1` (configuration not stated) | -4.472 | 0.578 |
| `Fc1ccccc1Sc1ccccc1CNC1=NCCN1` | - | 7.216 |
| `CC(NC(=O)N1CCc2ccccc2C1)c1nncn1C` (configuration not stated) | 0.6215 | 7.831 |
| `c1ccc(OCCNCc2cccs2)nc1` | 15.38 | 5.263 |
| `COc1ncccc1CN1C[C@@H]2OCCN(CCN(C)C)[C@@H]2C1` | - | 3.226 |
| `COc1cccc(OC)c1OCCN1C(=O)CCNC1=O` | -9.772 | 7.921 |
| `CC(C(=O)N1CCCC1)S(=O)(=O)Cc1noc(C(C)(C)C)n1` (configuration not stated) | 2.843 | 5.155 |
| `OCCN1CCCCC1C1OCCO1` (configuration not stated) | 13.58 | 12 |
| `O=C1[C@@H]2CN(Cc3ccccn3)C[C@H]2CCN1c1cncnc1` | - | 5.155 |
| `O=C(O)c1ccc(S(=O)(=O)Nc2ccccc2F)c(F)c1` | -1.343 | 5.056 |
| `CC(CNC(=O)Nc1ccc(C#N)cc1)N1CCc2ccccc21` (configuration not stated) | -12.62 | -2.041 |
| `COc1ccc(CNC(Cn2cncn2)c2ccccc2)cc1C` (configuration not stated) | 2.079 | 3.784 |
| `Cc1ccc2c(c1)CN(C(=O)c1cccnc1)C(CN(C)C)CO2` (configuration not stated) | - | 1.064 |
| `O=C(NCc1cccnc1)C1=NOC2(CCN(S(=O)(=O)C3CC3)C2)C1` (configuration not stated) | 3.846 | 0.5405 |
| `NC(=O)C1CCN(C(=O)CCSCc2ccccc2)CC1` | 13.01 | 6.215 |
| `CS(=O)(=O)NC[C@H]1Cn2c(-c3ccc(F)cc3)cnc2CO1` | 7.248 | 4.348 |
| `COc1ccc(Br)cc1CC(=O)N1CCCC1` | 9.358 | 2.762 |
| `Cc1ccnn1CCC(=O)N(Cc1ccsc1)CC(C)C` | 3.749 | 3.933 |
| `Cc1cnn(CC2CCCN2C(=O)Cc2ccc3c(c2)CCO3)c1` (configuration not stated) | -11.55 | 5.025 |
| `[H][C@@]12CCC(=O)N(CC(C)C)[C@]1([H])CCN(C(=O)c1ncc[nH]1)C2` | -10.27 | - |
| `CC(C)(CNC(=O)C(C)(C)Oc1ccc2c(c1)CCCC2=O)C(N)=O` | 12.62 | 9.554 |
| `Cc1ccsc1CN(Cc1cccnc1)C1CC(C)(C)NC(C)(C)C1.O=C(O)CC(O)(CC(=O)O)C(=O)O` | 21.17 | - |
| `Cc1cccc(C(C(=O)NCCn2cccc2)N(C)C)c1` (configuration not stated) | 7.616 | 2.564 |
| `CNC(=O)CN1CCC12CCN(C(=O)Cc1ccccc1)C2.O=C(O)C(F)(F)F` (configuration not stated) | 0.6471 | - |
| `O=C(O)C(F)(F)F.[H][C@@]12COC[C@]1(COc1cccnc1)CN(C(=O)c1ccc(F)cc1)C2` | -22.82 | - |
| `CCN1C(=O)CCCC12CCCN(C(=O)c1ccncc1F)C2` (configuration not stated) | - | 8.38 |
| `COC(=O)[C@@H]1Cc2c[nH]c3cccc(c23)[C@H](CC(C)C)N1` | 9.518 | 6.522 |
| `O=S(=O)(NCC1OCCc2cn(CC3CCOCC3)nc21)C1CC1` (configuration not stated) | - | 3.448 |
| `CCc1ncc2c(n1)CN(C(=O)Cc1cc(OC)cc(OC)c1)C2` | -1.556 | 2.618 |
| `CCCC(=O)Nc1sc(C(=O)OCC)c(C)c1C#N` | -15.19 | 2.174 |
| `CC(NC(=O)c1ccnc(C2CC2)n1)C1(N2CCOCC2)CCCC1` (configuration not stated) | 4.957 | 0.5525 |
| `COCCNC(=O)c1cc(C2CC2)nc2onc(C3CCNC3)c12` (configuration not stated) | 9.723 | 1.775 |
| `[H][C@@]12CCN(Cc3scnc3C)C[C@@]1([H])O[C@@H](c1ccncn1)C2` | -2.661 | - |
| `Cn1cc(C(O)CNC(=O)c2sccc2OC(F)F)cn1` (configuration not stated) | 1.551 | 3.061 |
| `O=C(O)C(F)(F)F.[H][C@@]12OCCN(S(=O)(=O)CC)[C@@]1([H])CC[C@H]2OCCCn1cccn1` | 2.564 | - |
| `O=C(Nc1ccccn1)C1(n2cnnn2)CCCCC1` | 4.777 | 7.317 |
| `NC1(C(=O)NCC2CCCN(Cc3cccc4nonc34)C2)CCC1` (configuration not stated) | 6.718 | 7.831 |
| `Cc1ccc(CN2Cc3c(C(=O)N(C)C)nn(C)c3C2)s1.O=C(O)C(F)(F)F` | -8.523 | - |
| `Cc1ccc(CC(=O)N2CSCC2C(=O)N(C)Cc2ccco2)o1` (configuration not stated) | -8.726 | 4.545 |
| `CNC(=O)Cn1c(CO)cnc1SCc1ccccc1Cl` | 4.387 | 3.627 |
| `CCNC(=O)CCC(=O)NC(Cc1ccccc1)c1sccc1C` (configuration not stated) | -3.558 | 0 |
| `COCC(=O)N1CCC2(CC1)CC(COC)N(c1ncccn1)C2` (configuration not stated) | - | 3.922 |
| `CC(=O)N1C[C@H](c2cc(O)nc(C)n2)[C@@H](c2ccccc2F)C1` | 5.23 | 7.576 |

The last 5 entries again:

* Cc1ccc(CC(=O)N2CSCC2C(=O)N(C)Cc2ccco2)o1 (configuration not stated) | Toxoplasma: -8.726%; TcHisRS: 4.545%
* CNC(=O)Cn1c(CO)cnc1SCc1ccccc1Cl | Toxoplasma: 4.387%; TcHisRS: 3.627%
* CCNC(=O)CCC(=O)NC(Cc1ccccc1)c1sccc1C (configuration not stated) | Toxoplasma: -3.558%; TcHisRS: 0%
* COCC(=O)N1CCC2(CC1)CC(COC)N(c1ncccn1)C2 (configuration not stated) | TcHisRS: 3.922%
* CC(=O)N1C[C@H](c2cc(O)nc(C)n2)[C@@H](c2ccccc2F)C1 | Toxoplasma: 5.23%; TcHisRS: 7.576%

Measurements from “University of Dundee, Small-Polar-MMV Screening Library” (2021), ChEMBL document CHEMBL3988442.